Measurements: publication PMC3205050

Protein sequences, listed by entry. Tags and fused reporters are not part of them. Lines headed by an entry give the natural chain unless they say otherwise; changes in a name come on top.
UniProt P84025: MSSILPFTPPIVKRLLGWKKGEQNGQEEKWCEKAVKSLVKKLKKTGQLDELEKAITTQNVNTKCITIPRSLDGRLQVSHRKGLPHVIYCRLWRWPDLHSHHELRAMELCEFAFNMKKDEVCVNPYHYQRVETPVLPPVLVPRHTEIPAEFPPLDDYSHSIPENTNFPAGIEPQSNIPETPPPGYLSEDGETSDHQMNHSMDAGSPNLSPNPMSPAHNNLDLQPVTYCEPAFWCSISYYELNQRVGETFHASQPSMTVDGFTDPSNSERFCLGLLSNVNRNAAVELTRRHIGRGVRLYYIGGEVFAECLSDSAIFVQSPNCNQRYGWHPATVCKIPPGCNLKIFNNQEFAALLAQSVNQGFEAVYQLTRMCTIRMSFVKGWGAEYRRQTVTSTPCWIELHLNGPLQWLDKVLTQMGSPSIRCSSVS

Key:
[1] = target: T1, Smad4 (endogenous, nuclear extract) (Rattus norvegicus (rat VSMC)) (UniProt O70437); assay: southwestern blot; conditions: 10 mM Mg2+, Southwestern: 30 mM HEPES pH 7.6, 50 mM KCl, 10 mM MgCl2, 0.1 mM EDTA, 1 mM DTT, 5% BLOTTO, 0.1% BSA, 1 mg/ml poly(dI-dC), 4 C overnight, protein in an extract, label: 5'-biotin
T1 sequence (looked up, limits assumed): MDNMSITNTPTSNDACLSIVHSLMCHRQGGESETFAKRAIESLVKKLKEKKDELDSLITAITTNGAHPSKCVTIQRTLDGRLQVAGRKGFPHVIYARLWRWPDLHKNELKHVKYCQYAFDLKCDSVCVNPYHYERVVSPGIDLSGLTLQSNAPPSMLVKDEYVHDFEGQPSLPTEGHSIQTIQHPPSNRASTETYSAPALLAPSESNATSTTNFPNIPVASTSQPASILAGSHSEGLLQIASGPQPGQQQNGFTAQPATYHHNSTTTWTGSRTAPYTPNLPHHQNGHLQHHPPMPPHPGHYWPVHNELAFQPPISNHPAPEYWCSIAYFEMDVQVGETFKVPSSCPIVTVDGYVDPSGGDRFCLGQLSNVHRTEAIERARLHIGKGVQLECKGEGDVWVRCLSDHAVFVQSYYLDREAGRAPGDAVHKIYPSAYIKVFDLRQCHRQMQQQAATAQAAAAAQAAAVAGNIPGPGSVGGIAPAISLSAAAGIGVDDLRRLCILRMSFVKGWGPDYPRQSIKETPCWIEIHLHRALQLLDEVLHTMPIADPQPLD

[2] = target: pSmad3 (endogenous, nuclear extract of TGF-b1-treated VSMC) (Rattus norvegicus (rat VSMC)) (UniProt P84025); assay: southwestern blot; conditions: Southwestern: 30 mM HEPES pH 7.6, 50 mM KCl, 10 mM MgCl2, 0.1 mM EDTA, 1 mM DTT, 5% BLOTTO, 0.1% BSA, 1 mg/ml poly(dI-dC), 4 C overnight, protein in an extract, label: 5'-biotin
recombinant Smad4 = assay: southwestern blot; conditions: PARP1/NAD+/active DNA, poly(ADP-ribosyl)ation increased binding, 3AB inhibited, 10 mM Mg2+; Southwestern: 30 mM HEPES pH 7.6, 50 mM KCl, 10 mM MgCl2, 0.1 mM EDTA, 1 mM DTT, 5% BLOTTO, 0.1% BSA, 1 mg/ml poly(dI-dC), 4 C overnight; recombinant protein; label: 5'-biotin
recombinant pSmad3 = assay: southwestern blot; conditions: PARP1/NAD+/active DNA, poly(ADP-ribosyl)ation increased binding, 3AB inhibited, 10 mM Mg2+; Southwestern: 30 mM HEPES pH 7.6, 50 mM KCl, 10 mM MgCl2, 0.1 mM EDTA, 1 mM DTT, 5% BLOTTO, 0.1% BSA, 1 mg/ml poly(dI-dC), 4 C overnight; recombinant protein; label: 5'-biotin
[3] = target: pSmad3 (endogenous, nuclear extract of TGF-b1-treated VSMC) (Rattus norvegicus (rat VSMC)) (UniProt P84025); assay: EMSA supershift (anti-pSmad3 abrogates band); conditions: TGF-b1-treated cells, band also lost on Smad3 knockdown; EMSA: LightShift kit (Pierce), antibody 60 min at 4 C then probe 20 min; protein in an extract; label: 5'-biotin

AGTATGTCTAGACTGA (double strand) [SBE consensus]
binding result ([1]; NAD+/active DNA (text: with PARP1), increased, inhibited by 3AB): binds | binding result ([1]; TGF-b1-treated cells, band lost on Smad4 siRNA): binds | binding result ([2]; TGF-b1-treated cells, 10 mM Mg2+, band lost on Smad3 siRNA): binds | binding result ([2]; TGF-b1 plus PARP1 siRNA, 3AB or PJ34, 10 mM Mg2+): binds more weakly | binding result ([2]; extract of non-treated cells (phosphorylation not stated) with NAD+/active DNA, increased, inhibited by 3AB, 10 mM Mg2+): binds | binding result (recombinant Smad4): binds | binding result (recombinant pSmad3): binds | binding result [3]: binds

Construct, isoform or probe ends are uncertain for at least one entry. For some assays here: Results from cells or extracts need not show a direct contact. For some assays here: Weaker means in comparison with the reference protein, sequence or condition of that experiment. For some assays here: Tags and fusion partners may be left off the protein sequences shown. For some assays here: At least one verdict was read from the data and is not stated in words by the source.
